Test results reported in the supplement of paper PMC10849652.
The other results are listed elsewhere or left out.

Sequences of proteins named here, by UniProt entry; tags and fusion partners are left off. A change or cut given only in a name is not applied to a line headed by its entry.
UniProt Q5U3C3: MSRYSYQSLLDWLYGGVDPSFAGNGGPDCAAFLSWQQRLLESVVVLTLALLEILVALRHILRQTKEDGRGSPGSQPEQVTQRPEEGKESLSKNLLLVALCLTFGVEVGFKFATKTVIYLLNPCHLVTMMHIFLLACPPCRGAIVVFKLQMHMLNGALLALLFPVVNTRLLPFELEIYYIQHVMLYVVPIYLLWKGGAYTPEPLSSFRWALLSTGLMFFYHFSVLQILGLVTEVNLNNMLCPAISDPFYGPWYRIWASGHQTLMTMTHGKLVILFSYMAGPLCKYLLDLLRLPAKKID
UniProt O94886: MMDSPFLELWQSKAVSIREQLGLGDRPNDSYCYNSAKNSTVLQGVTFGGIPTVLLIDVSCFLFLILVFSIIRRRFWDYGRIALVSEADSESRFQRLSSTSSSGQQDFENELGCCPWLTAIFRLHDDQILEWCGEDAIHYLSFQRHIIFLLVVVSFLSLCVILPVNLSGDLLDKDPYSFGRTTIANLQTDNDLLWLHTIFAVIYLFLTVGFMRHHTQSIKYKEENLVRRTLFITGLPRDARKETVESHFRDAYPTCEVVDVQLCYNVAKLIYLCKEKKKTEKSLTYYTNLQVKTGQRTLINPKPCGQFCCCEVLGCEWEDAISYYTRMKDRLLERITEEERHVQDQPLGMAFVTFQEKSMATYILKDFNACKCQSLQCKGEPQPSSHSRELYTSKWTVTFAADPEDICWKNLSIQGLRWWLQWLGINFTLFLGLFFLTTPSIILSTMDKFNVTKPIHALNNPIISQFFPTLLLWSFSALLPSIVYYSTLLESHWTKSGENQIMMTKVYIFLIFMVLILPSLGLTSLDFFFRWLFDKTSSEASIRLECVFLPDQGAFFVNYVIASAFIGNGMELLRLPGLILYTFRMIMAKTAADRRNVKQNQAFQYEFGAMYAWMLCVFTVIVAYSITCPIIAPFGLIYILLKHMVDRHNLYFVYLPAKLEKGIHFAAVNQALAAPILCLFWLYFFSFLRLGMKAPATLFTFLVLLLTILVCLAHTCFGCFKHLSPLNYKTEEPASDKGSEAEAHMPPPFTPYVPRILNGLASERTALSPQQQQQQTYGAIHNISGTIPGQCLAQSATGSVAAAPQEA
UniProt Q0P6H9: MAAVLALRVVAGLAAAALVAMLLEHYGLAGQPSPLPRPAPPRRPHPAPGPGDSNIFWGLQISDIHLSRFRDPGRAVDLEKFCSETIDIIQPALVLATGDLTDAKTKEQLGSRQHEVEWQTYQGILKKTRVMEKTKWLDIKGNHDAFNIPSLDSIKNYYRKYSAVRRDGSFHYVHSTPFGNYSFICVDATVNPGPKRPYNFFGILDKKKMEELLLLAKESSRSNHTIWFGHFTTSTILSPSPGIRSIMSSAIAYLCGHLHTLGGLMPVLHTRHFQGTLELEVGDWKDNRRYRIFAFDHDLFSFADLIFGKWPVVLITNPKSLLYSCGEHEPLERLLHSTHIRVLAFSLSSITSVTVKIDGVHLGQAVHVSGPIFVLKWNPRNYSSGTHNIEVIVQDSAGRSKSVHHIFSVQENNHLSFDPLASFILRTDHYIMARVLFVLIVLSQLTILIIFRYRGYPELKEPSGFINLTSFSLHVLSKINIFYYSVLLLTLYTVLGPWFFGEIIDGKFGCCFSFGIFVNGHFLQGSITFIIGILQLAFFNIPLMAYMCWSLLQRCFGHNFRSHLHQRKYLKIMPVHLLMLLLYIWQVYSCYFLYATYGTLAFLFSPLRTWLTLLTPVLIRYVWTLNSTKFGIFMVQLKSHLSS
UniProt Q9NVV0: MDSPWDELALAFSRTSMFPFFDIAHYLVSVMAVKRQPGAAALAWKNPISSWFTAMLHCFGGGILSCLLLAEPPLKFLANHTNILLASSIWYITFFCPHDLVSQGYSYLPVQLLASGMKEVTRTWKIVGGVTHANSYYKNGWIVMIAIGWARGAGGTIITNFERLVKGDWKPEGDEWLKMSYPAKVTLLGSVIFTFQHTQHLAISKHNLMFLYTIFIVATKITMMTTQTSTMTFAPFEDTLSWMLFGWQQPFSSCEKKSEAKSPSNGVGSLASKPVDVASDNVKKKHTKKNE
UniProt Q13445: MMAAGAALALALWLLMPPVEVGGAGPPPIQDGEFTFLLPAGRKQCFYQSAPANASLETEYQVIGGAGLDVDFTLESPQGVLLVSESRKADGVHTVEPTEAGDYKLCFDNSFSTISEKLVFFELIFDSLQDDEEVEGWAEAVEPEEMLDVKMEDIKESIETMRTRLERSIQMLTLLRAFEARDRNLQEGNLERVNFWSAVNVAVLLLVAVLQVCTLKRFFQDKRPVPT
UniProt O15321, whole entry, looked up: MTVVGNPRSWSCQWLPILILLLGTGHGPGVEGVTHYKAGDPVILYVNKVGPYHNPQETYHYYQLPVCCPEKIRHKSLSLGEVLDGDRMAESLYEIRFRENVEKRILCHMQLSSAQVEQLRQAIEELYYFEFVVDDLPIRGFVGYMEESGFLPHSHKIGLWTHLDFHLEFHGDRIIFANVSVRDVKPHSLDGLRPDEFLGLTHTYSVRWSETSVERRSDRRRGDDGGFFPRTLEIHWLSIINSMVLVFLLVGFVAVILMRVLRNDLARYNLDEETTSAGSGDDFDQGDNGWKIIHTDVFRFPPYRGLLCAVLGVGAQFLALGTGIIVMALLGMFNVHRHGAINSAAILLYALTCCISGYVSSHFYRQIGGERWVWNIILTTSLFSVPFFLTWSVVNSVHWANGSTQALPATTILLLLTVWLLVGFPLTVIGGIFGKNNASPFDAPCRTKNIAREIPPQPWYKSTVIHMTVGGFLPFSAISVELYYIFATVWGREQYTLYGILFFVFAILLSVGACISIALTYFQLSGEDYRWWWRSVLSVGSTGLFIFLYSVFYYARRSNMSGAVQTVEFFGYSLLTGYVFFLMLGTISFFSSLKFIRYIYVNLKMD
UniProt Q9BUB7: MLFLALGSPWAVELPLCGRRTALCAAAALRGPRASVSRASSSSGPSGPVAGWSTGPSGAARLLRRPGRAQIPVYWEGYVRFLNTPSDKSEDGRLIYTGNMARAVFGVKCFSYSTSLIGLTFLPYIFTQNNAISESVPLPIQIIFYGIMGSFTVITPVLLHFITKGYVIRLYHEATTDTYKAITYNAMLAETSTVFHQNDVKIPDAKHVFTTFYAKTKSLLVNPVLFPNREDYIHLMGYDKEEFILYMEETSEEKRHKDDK
UniProt Q9BXJ8: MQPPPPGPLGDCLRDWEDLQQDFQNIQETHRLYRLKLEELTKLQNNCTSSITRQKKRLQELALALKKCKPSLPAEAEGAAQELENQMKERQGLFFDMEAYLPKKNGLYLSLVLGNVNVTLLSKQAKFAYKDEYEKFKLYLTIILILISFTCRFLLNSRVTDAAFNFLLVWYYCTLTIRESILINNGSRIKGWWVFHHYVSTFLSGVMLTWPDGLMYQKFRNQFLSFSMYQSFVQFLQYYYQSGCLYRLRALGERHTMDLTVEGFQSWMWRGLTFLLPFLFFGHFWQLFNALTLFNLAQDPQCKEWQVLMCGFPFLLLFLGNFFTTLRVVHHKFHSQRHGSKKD
UniProt Q8N511: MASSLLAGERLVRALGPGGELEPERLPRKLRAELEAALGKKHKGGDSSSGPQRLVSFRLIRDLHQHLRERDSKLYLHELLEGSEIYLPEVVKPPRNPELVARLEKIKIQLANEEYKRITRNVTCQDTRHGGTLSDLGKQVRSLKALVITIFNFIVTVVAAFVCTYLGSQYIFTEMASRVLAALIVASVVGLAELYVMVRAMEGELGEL
UniProt P49755: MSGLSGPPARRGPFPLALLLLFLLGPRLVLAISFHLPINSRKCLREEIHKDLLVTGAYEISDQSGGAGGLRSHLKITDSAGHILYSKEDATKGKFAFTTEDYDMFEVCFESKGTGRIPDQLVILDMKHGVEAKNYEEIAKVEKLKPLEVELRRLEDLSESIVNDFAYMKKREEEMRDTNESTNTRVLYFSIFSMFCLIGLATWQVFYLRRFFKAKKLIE
UniProt Q92544: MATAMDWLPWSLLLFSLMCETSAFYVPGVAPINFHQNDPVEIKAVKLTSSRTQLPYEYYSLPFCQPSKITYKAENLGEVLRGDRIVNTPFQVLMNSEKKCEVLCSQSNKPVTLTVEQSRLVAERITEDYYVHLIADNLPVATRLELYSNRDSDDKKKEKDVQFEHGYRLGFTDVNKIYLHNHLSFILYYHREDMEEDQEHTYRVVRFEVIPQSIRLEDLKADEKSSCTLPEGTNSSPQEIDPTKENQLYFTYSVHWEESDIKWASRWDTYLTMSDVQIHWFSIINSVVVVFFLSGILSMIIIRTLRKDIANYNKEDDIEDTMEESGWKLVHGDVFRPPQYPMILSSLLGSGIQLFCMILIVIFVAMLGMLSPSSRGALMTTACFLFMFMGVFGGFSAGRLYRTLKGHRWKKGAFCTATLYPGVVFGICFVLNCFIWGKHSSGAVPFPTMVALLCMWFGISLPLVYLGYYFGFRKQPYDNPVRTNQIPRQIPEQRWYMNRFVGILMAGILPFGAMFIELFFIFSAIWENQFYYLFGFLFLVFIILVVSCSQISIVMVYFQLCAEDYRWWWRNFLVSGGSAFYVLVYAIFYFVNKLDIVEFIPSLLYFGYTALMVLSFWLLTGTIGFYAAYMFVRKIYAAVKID
UniProt Q9H0V1: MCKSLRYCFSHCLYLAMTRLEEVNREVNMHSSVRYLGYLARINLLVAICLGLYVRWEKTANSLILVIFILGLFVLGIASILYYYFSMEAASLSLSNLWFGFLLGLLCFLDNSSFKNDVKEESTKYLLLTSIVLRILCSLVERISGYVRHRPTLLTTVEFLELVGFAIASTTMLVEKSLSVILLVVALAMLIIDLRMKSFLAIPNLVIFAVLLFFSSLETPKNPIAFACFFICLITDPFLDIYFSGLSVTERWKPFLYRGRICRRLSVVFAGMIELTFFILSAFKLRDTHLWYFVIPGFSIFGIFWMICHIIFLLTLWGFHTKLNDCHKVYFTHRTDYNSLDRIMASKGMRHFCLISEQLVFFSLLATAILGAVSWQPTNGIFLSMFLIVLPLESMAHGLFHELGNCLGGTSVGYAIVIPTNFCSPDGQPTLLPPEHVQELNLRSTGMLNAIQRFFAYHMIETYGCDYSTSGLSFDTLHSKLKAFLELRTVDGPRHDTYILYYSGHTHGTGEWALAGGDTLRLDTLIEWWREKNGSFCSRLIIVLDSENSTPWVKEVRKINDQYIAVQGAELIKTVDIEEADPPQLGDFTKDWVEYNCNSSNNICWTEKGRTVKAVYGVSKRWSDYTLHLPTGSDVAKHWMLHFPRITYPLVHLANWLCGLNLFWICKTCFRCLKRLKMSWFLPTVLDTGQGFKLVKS
UniProt Q99805: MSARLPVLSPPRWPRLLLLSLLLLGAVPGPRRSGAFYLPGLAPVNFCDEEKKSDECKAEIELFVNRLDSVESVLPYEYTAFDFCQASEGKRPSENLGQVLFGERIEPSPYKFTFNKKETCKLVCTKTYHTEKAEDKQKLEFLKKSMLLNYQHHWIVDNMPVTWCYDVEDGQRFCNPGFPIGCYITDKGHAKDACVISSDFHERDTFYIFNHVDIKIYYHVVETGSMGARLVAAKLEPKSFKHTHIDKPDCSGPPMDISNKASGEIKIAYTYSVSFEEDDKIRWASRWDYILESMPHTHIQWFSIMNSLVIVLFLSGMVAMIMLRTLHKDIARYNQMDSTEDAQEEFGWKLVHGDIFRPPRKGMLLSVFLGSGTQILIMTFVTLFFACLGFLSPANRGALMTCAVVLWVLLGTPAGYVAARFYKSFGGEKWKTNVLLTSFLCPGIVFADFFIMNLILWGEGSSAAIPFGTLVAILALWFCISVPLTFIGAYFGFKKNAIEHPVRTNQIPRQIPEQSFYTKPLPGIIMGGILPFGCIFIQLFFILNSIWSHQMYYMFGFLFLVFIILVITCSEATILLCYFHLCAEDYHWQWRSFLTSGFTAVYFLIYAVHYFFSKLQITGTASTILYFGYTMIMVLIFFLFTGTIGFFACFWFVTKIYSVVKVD
UniProt Q9BVK8: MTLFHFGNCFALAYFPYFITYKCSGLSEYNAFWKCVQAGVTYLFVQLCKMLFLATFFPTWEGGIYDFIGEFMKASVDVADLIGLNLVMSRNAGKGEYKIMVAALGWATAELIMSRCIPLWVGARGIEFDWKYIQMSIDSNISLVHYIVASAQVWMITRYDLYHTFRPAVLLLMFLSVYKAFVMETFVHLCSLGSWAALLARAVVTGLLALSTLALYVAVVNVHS
UniProt A0PJW6: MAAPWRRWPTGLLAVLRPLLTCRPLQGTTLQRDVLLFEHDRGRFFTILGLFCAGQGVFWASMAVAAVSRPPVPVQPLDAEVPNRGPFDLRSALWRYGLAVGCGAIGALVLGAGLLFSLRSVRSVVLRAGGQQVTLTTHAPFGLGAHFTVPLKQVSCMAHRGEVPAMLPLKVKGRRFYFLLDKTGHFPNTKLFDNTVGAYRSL
UniProt Q86XT9, whole entry, looked up: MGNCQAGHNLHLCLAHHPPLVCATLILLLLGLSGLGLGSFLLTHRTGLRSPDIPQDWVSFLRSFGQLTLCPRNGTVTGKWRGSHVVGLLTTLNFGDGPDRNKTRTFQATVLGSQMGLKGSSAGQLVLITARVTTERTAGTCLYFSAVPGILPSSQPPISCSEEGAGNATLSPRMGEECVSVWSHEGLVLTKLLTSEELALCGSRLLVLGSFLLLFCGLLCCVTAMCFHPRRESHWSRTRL

How the values were obtained:
Test in all cases: log2 fold change, soluble protein after heating vs DMSO (PISA); higher = thermal stabilisation; K562 cells, 10 uM, 30 min; active = over 0.2 and 3.5 SD of the protein, either way, in both replicates (recomputed)
[1] = compound: CS(=O)(=O)c1ccc(-c2cnc(N)c(C(=O)Nc3ccccc3)n2)cc1
Procedure, shortened: (§1)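 Thermal stability values are relative to control samples and come from duplicates. They are expressed as log2 fold changes. For measurement, K562 cells (2×10^6 cells/mL) received 10 μM compound for 30 min, and aliquots were heated for 3 min over 48°C-58°C, pooled, and extracted at 4°C in PBS with 0.5% NP-40. Soluble protein, the supernatant after 21,000xg for 90 min, was quantified by TMTpro 16plex LC-MS/MS with equalised channel sums.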

crizotinib = compound: C[C@@H](Oc1cc(-c2cnn(C3CCNCC3)c2)cnc1N)c1c(Cl)ccc(F)c1Cl [crizotinib]
Procedure, shortened: as §1

[2] = compound: C[C@@H]1COCCN1C2=NC(=NC(=C2)C3(CC3)S(=O)(=O)C)C4=C5C=CNC5=CC=C4
Procedure, shortened: as §1

[3] = compound: C[C@H](C1=CC=C(C=C1)C(=O)NC2=C3C=CNC3=NC=C2)N
Procedure, shortened: as §1

duvelisib = compound: C[C@H](Nc1ncnc2nc[nH]c12)c1cc2cccc(Cl)c2c(=O)n1-c1ccccc1 [duvelisib]
Procedure, shortened: as §1

gandotinib = compound: Cc1cc(Nc2cc(CN3CCOCC3)c3nc(C)c(Cc4ccc(Cl)cc4F)n3n2)n[nH]1 [gandotinib]
Procedure, shortened: as §1

[4] = compound: Cc1cc(SCc2sc(-c3ccc(C(F)(F)F)cc3)nc2C)ccc1OCC(=O)O
Procedure, shortened: as §1

doramapimod = compound: Cc1ccc(-n2nc(C(C)(C)C)cc2NC(=O)Nc2ccc(OCCN3CCOCC3)c3ccccc23)cc1 [doramapimod]
Procedure, shortened: as §1

bafetinib = compound: Cc1ccc(NC(=O)c2ccc(CN3CC[C@H](N(C)C)C3)c(C(F)(F)F)c2)cc1Nc1nccc(-c2cncnc2)n1 [bafetinib]
Procedure, shortened: as §1

[5] = compound: Cc1cccc(CC(=O)N2CCc3c2ccc(-c2cn(C)c4ncnc(N)c24)c3F)n1
Procedure, shortened: as §1

nilotinib = compound: Cc1cn(-c2cc(NC(=O)c3ccc(C)c(Nc4nccc(-c5cccnc5)n4)c3)cc(C(F)(F)F)c2)cn1 [nilotinib]
Procedure, shortened: as §1

[6] = compound: Cc1nc(Nc2n[nH]c3c2CN(C(=O)N[C@H](CN(C)C)c2ccccc2)C3(C)C)c2sccc2n1
Procedure, shortened: as §1

dasatinib = compound: Cc1nc(Nc2ncc(C(=O)Nc3c(C)cccc3Cl)s2)cc(N2CCN(CCO)CC2)n1 [dasatinib]
Procedure, shortened: as §1

[7] = compound: Cc1ncc(-c2ccnc(Nc3ccc(S(C)(=O)=O)cc3)n2)n1C(C)C
Procedure, shortened: as §1

[8] = compound: Cn1cc(-c2ccc3c(c2)CCN3C(=O)Cc2cccc(C(F)(F)F)c2)c2c(N)ncnc21
Procedure, shortened: as §1

tipifarnib = compound: Cn1cncc1[C@@](N)(c1ccc(Cl)cc1)c1ccc2c(c1)c(-c1cccc(Cl)c1)cc(=O)n2C [tipifarnib]
Procedure, shortened: as §1

mubritinib = compound: FC(F)(F)c1ccc(/C=C/c2nc(COc3ccc(CCCCn4ccnn4)cc3)co2)cc1 [mubritinib]
Procedure, shortened: as §1

tozasertib = compound: Cc1cc(Nc2cc(N3CCN(C)CC3)nc(Sc3ccc(NC(=O)C4CC4)cc3)n2)n[nH]1 [tozasertib]
Procedure, shortened: as §1

ispinesib = compound: Cc1ccc(C(=O)N(CCCN)[C@@H](c2nc3cc(Cl)ccc3c(=O)n2Cc2ccccc2)C(C)C)cc1 [ispinesib]
Procedure, shortened: as §1

[9] = compound: Cn1cc(-c2ccc3nnc(C(F)(F)c4ccc5ncccc5c4)n3n2)cn1
Procedure, shortened: as §1

Measured: log2 fold change

TMEM164 (UniProt Q5U3C3)
inactive: [1] 0 | crizotinib -0.036 | [2] 0.139 | [3] 0.05 | gandotinib -0.204 | [4] 0.027 | doramapimod 0.091 | bafetinib -0.097 | [5] -0.155 | nilotinib 0.023 | [6] -0.021 | dasatinib 0.048 | [7] 0.037 | [8] 0.002 | tipifarnib 0.059 | mubritinib -0.067
active: duvelisib 0.601

TMEM63A (UniProt O94886)
inactive: [1] 0.058 | crizotinib -0.072 | [2] 0.014 | [3] -0.029 | duvelisib 0.019 | gandotinib 0.018 | tozasertib -0.059 | [4] -0.04 | doramapimod 0.041 | bafetinib 0.089 | [5] -0.034 | nilotinib 0.038 | [6] 0.058 | dasatinib -0.006 | [7] 0.004 | [8] 0.032 | tipifarnib -0.016 | mubritinib 0.019

TMEM62 (UniProt Q0P6H9)
inactive: [1] 0.114 | crizotinib 0.067 | [2] 0.087 | [3] -0.027 | duvelisib 0.067 | gandotinib -0.012 | tozasertib -0.032 | [4] 0.091 | doramapimod 0.031 | ispinesib 0.041 | bafetinib 0.211 | [5] -0.014 | nilotinib 0.003 | [6] 0.027 | dasatinib -0.131 | [7] 0.029 | [8] 0.053 | [9] -0.019 | tipifarnib -0.031 | mubritinib -0.08

TMEM38B (UniProt Q9NVV0)
inactive: [1] 0.061 | crizotinib -0.062 | [2] 0.05 | [3] -0.135 | duvelisib -0.012 | gandotinib -0.03 | tozasertib -0.029 | [4] -0.035 | doramapimod -0.095 | ispinesib 0.036 | bafetinib -0.079 | [5] -0.004 | nilotinib -0.012 | [6] 0.003 | dasatinib 0.021 | [7] -0.032 | [8] -0.021 | [9] -0.045 | tipifarnib 0.01 | mubritinib 0.146

TMED1 (UniProt Q13445)
inactive: [1] -0.029 | crizotinib 0.149 | [2] 0.046 | [3] -0.116 | duvelisib 0.023 | gandotinib -0.023 | tozasertib -0.004 | [4] -0.017 | doramapimod 0.078 | ispinesib -0.022 | bafetinib -0.014 | [5] 0 | nilotinib -0.001 | [6] 0.035 | dasatinib -0.015 | [7] -0.004 | [8] 0.023 | [9] -0.015 | tipifarnib -0.03 | mubritinib 0.053

Pulled one by one from the entries so far (2):
TMEM62 (UniProt Q0P6H9)
inactive: [1] 0.114 | crizotinib 0.067 | [2] 0.087 | [3] -0.027 | duvelisib 0.067 | gandotinib -0.012 | tozasertib -0.032 | [4] 0.091 | doramapimod 0.031 | ispinesib 0.041 | bafetinib 0.211 | [5] -0.014 | nilotinib 0.003 | [6] 0.027 | dasatinib -0.131 | [7] 0.029 | [8] 0.053 | [9] -0.019 | tipifarnib -0.031 | mubritinib -0.08

TMED1 (UniProt Q13445)
inactive: [1] -0.029 | crizotinib 0.149 | [2] 0.046 | [3] -0.116 | duvelisib 0.023 | gandotinib -0.023 | tozasertib -0.004 | [4] -0.017 | doramapimod 0.078 | ispinesib -0.022 | bafetinib -0.014 | [5] 0 | nilotinib -0.001 | [6] 0.035 | dasatinib -0.015 | [7] -0.004 | [8] 0.023 | [9] -0.015 | tipifarnib -0.03 | mubritinib 0.053

Further entries

TM9SF1 (UniProt O15321)
inactive: [1] 0.033 | crizotinib 0.067 | [2] 0.035 | [3] 0.058 | duvelisib 0.067 | gandotinib -0.117 | tozasertib 0.052 | [4] -0.034 | doramapimod 0.258 | ispinesib 0.06 | bafetinib 0.013 | [5] -0.038 | nilotinib 0.057 | [6] -0.023 | dasatinib 0.14 | [7] 0.099 | [8] -0.03 | [9] -0.015 | tipifarnib 0.049 | mubritinib 0.096

TMEM70 (UniProt Q9BUB7)
inactive: [1] 0.025 | crizotinib -0.096 | [2] 0.035 | [3] 0.002 | gandotinib -0.08 | [4] 0.087 | doramapimod -0.017 | ispinesib -0.243 | bafetinib -0.141 | [5] 0.026 | nilotinib 0.028 | [6] -0.003 | dasatinib -0.094 | [7] 0.018 | [8] 0.06 | [9] 0.023 | tipifarnib -0.02 | mubritinib 0.017

TMEM120A (UniProt Q9BXJ8)
inactive: [1] -0.137 | crizotinib 0.096 | [2] 0.175 | [3] -0.11 | gandotinib -0.125 | [4] -0.055 | doramapimod -0.077 | ispinesib 0.033 | [5] -0.054 | nilotinib -0.009 | [6] -0.038 | dasatinib 0.046 | [7] -0.09 | [8] 0.053 | [9] 0.057 | tipifarnib 0.011 | mubritinib 0.048
active: bafetinib 0.454

TMEM199 (UniProt Q8N511)
inactive: [1] -0.034 | crizotinib 0.086 | [2] -0.003 | [3] 0.056 | duvelisib 0.039 | gandotinib -0.008 | tozasertib -0.087 | [4] -0.039 | doramapimod 0.03 | ispinesib -0.121 | bafetinib -0.018 | [5] -0.12 | nilotinib -0.035 | [6] -0.02 | dasatinib 0.011 | [7] 0.013 | [8] -0.028 | [9] 0.082 | tipifarnib -0.058 | mubritinib -0.034

TMX1 (UniProt Q9H3N1)
inactive: [1] 0.011 | crizotinib 0.032 | [2] 0.013 | [3] 0.012 | duvelisib -0.005 | gandotinib -0.059 | tozasertib 0.006 | [4] -0.022 | doramapimod -0.009 | ispinesib 0.032 | bafetinib -0.014 | [5] -0.07 | nilotinib -0.006 | [6] 0.035 | dasatinib 0.017 | [7] -0.027 | [8] -0.001 | [9] -0.013 | tipifarnib 0.038 | mubritinib 0.003

TMED10 (UniProt P49755)
inactive: [1] 0.064 | crizotinib 0.039 | [2] 0 | [3] -0.033 | duvelisib 0.018 | gandotinib -0.027 | tozasertib -0.005 | [4] 0.006 | doramapimod -0.008 | ispinesib 0.011 | bafetinib -0.027 | [5] -0.007 | nilotinib 0.027 | [6] -0.002 | dasatinib 0.036 | [7] 0 | [8] 0.082 | [9] -0.019 | tipifarnib -0.036 | mubritinib 0.007

TM9SF4 (UniProt Q92544)
active: [5] 0.252
inactive: [1] -0.029 | crizotinib -0.141 | [2] 0.036 | [3] 0.04 | gandotinib -0.189 | [4] 0.044 | doramapimod 0.034 | ispinesib -0.143 | bafetinib 0.034 | nilotinib 0.005 | [6] 0.012 | dasatinib 0.127 | [7] 0.037 | [8] -0.021 | [9] 0.004 | tipifarnib -0.061 | mubritinib 0.007

TMEM168 (UniProt Q9H0V1)
inactive: [1] -0.012 | crizotinib 0.051 | [2] -0.011 | [3] -0.037 | duvelisib -0.136 | gandotinib -0.07 | tozasertib 0.025 | [4] 0.058 | doramapimod -0.004 | ispinesib 0.024 | bafetinib -0.04 | [5] 0.047 | nilotinib 0.037 | [6] 0 | dasatinib 0.085 | [7] 0.022 | [8] 0.023 | [9] 0.056 | tipifarnib -0.031 | mubritinib 0.038

TM9SF2 (UniProt Q99805)
inactive: [1] 0.056 | [2] -0.017 | [3] -0.049 | gandotinib 0.008 | [4] 0 | doramapimod 0.007 | ispinesib -0.089 | bafetinib -0.056 | [5] 0.008 | nilotinib 0.025 | [6] -0.072 | dasatinib -0.013 | [7] 0.041 | [8] 0.023 | [9] 0.036 | tipifarnib 0.009 | mubritinib -0.006
active: crizotinib -0.754

TMEM147 (UniProt Q9BVK8)
inactive: [1] -0.159 | [2] 0.145 | [3] -0.175 | duvelisib 0.16 | tozasertib -0.18 | [4] 0.116 | ispinesib -0.122 | bafetinib -0.056 | nilotinib -0.032 | [6] 0.037 | dasatinib -0.018 | [7] -0.065 | [8] 0.02 | [9] 0.026 | tipifarnib 0.224 | mubritinib -0.085

TMEM223 (UniProt A0PJW6)
inactive: [1] -0.008 | crizotinib -0.045 | [2] 0.038 | [3] 0.002 | gandotinib -0.14 | [4] 0 | doramapimod 0.015 | bafetinib -0.156 | [5] -0.005 | nilotinib 0.032 | [6] 0.033 | dasatinib -0.052 | [7] -0.079 | [8] -0.025 | [9] 0.038 | tipifarnib 0.013 | mubritinib 0.044
active: ispinesib -0.254

TMEM219 (UniProt Q86XT9)
inactive: [1] 0.049 | [2] -0.036 | [3] 0.114 | gandotinib 0.034 | [4] -0.241 | bafetinib -0.211 | [5] 0.027 | nilotinib -0.243 | [6] 0.216 | dasatinib -0.11 | [7] 0.032 | [8] 0.092 | tipifarnib 0.063
